Laboratory results published in patent publication US20230192897A1 (NUMAB THERAPEUTICS, published 2023).
No constants are given. Whether binding was seen depends on the method and setting. Some entries that bind do so weakly or less than the wild type.

The chains behind the UniProt entries cited, without tags or fusion partners. Where a name states a change or a piece, a line headed by the entry shows the natural chain unless it says otherwise.
UniProt Q07011: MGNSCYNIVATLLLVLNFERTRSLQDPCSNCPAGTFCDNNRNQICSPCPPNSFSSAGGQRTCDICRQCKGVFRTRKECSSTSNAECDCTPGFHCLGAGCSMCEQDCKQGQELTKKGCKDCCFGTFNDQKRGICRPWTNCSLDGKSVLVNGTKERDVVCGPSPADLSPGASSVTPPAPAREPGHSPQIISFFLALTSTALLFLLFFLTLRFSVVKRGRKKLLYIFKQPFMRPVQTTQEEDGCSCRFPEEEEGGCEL
UniProt Q9NZQ7: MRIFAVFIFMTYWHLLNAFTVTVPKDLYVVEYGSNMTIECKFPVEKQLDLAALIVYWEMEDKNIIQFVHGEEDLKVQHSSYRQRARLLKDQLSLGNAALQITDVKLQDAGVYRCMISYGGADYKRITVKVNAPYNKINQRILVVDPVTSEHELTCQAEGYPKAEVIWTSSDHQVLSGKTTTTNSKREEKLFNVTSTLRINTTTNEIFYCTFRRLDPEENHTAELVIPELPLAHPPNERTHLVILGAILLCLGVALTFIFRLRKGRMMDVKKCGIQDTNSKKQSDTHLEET

Columns and labels:
Experiment in all cases: SPR
Fc tagged human CD137 = molecular target: T1, Fc tagged human CD137 (human, UniProt Q07011 24-186)
T1 construct: also called CD137-Fc chimeric protein

Fc tagged human PDL1 = molecular target: T2, Fc tagged human PDL1 (human, UniProt Q9NZQ7 19-239)
T2 construct: Bought (Sino Biological, cat. 10084-H02H); captured on the SPR chip; also called PDL1-Fc chimeric protein

[1] = molecular target: T3, cynomolgus PDL1-Fc chimeric protein (cynomolgus monkey, UniProt G7PSE7 19-239)
T3 construct: PDL1-Fc chimeric protein from different species captured on the chip
Method: Affinity to PDL1 of the different species was determined by SPR measurements using a Biacore T200 device (GE Healthcare). An antibody specific for the Fc region of human IgGs was immobilized on a sensor chip (CM5 sensor chip, GE Healthcare) by amine-coupling. For all formats, with the exception of the Fc containing Morrison formats, PDL1-Fc chimeric protein from different species were captured by the immobilized antibody.
Three-fold serial dilutions of the molecules specific for PDL1 (0.12-90 nM) were injected into the flow cells for three minutes and dissociation was monitored for 10 minutes. After each injection cycle, surfaces were regenerated with one injection of a 3 M MgCl₂ solution. The apparent dissociation (kd) and association (kₐ) rate constants and the apparent dissociation equilibrium constant (KD) were calculated using one-to-one Langmuir binding model. Affinity to CD137 of the different species was determined using the identical setup as for PDL1 with the exception that CD137-Fc chimeric protein from different species were captured by the immobilized antibody.

B1: PRO1482 (other)
chain: DIQMTQSPSSLSASVGDRVTITCQASQSINNVLAWYQQKPGKAPKLLIYRASTLASGVPSRFSGSGSGTDFTLTISSLQPEDFATYYCQSSYGNYGDFGCGTKVTVLGGGGGSEVQLVESGGGLVQPGGSLRLSCAASGFSFNSDYWIYWVRQAPGKGLEWIASIYGGSSGNTQYASWAQGRFTISRDNSKNTVYLQMNSLRAEDTAVYFCARGYVDYGGATDLWGQGTLVTVSSGGGGSGGGGSGGGGSGGGGSIQMTQSPASLSASVGDRVTITCQASQSIGTYLAWYQQKPGKPPKLLIYRAFILASGVPSRFSGSGSGTDFTLTISSLQPEDFATYYCQSNFYSDSTTIGPNAFGTGTKVTVLGGGGGSEVQLVESGGGLVQPGGSLRLSCAASGFSFSNSYWICWVRQAPGKCLEWIGCTFVGSSDSTYYANWAKGRFTISRDNSKNTVYLQMNSLRAEDTAVYYCARHPSDAVYGYANNLWGQGTLVTVSSGGGGSGGGGSIQMTQSPSSLSASVGDRVTITCQSSESVYSNNQLSWYQQKPGQPPKLLIYDASDLASGVPSRFSGSGSGTDFTLTISSLQPEDFATYYCAGGFSSSSDTAFGGGTKLTVLGGGGGSGGGGSGGGGSGGGGSEVQLVESGGGLVQPGGSLRLSCAASGFSLSSNAMGWVRQAPGKGLEYIGIISVGGFTYYASWAKGRFTISRDNSKNTVYLQMNSLRAEDTATYFCARDRHGGDSSGAFYLWGQGTLVTVSS
notes: trispecific scDb-scFv; also called 37-20-B03 sc09.1 scDb-i/38-02-A04 sc13 scDb-o/19-01-H04 sc03 scFv
- binding (Fc tagged human CD137): binds
- binding (Fc tagged human PDL1): binds

B2: PRO997 (scFv)
scFv: DIQMTQSPSSLSASVGDRVTITCQASQSIGTYLAWYQQKPGKAPKLLIYRAFILASGVPSRFSGSGSGTDFTLTISSLQPEDFATYYCQSNFYSDSTTIGPNAFGTGTKVTVLGGGGGSGGGGSGGGGSGGGGSQVQLQESGPGLVKPSETLSLTCKVSGFSFNSDYWIYWIRQPPGKGLEWIGSIYGGSSGNTQYASWAQGRVTISVDSSKNQFSLKLSSVTAADTAVYYCARGYVDYGGATDLWGQGTLVTVSS
notes: also called 37-20-B03 sc01 scFv; 37-20-B03 CDR
- binding [1]: binds

B3: PRO830 (scFv)
scFv: DIQMTQSPSSLSASVGDRVTITCQASQSINDYLAWYQQKPGKAPKLLIYKASTLASGVPSRFSGSGSGTDFTLTISSLQPEDFATYYCQQGYIITDIDNVFGTGTKVTVLGGGGGSGGGGSGGGGSGGGGSQVQLQESGPGLVKPSETLSLTCKVSGFSFSSGYDMCWIRQPPGKGLEWIGCVVAGSVDITYYASWAKGRVTISVDSSKNQFSLKLSSVTAADTAVYYCARKDAYSDAFNLWGQGTLVTVSS
notes: anti-PDL1 scFv; also called 33-03-G02 sc01 scFv; 33-03-G02 CDR
- binding [1]: binds
